Experimental data as given in US20070066522A1.
Results are given in words; binding and its absence hold for the method and conditions named. In cells and extracts the contact can be indirect. Some binding calls cover weakened binding; strength is not graded here.

Assays:
[1] = biological target: HRas in H-Ras^V12 oncogene-transformed cells (PH3MT) (UniProt P01112); experiment: co-immunoprecipitation, PH3MT cells
[2] = biological target: HRas in H-Ras^V12 oncogene-transformed cells (PH3MT) (UniProt P01112); experiment: co-immunoprecipitation with anti-HRas from PH3MT whole cell lysate, Western blot; interaction said to be enhanced upon EGF stimulation

- binding [1]: binds
- binding [2]: binds
B1: Sprouty2 (endogenous, in PH3MT human fibroblast lysates) (protein)
chain: MEARAQSGNGSQPLLQTPRDGGRQRGEPDPRDALTQQVHVLSLDQIRAIRNTNEYTEGPTVVPRPGLKPAPRPSTQHKHERLHGLPEHRQPPRLQHSQVHSSARAPLSRSISTVSSGSRSSTRTSTSSSSSEQRLLGSSFSSGPVADGIIRVQPKSELKPGELKPLSKEDLGLHAYRCEDCGKCKCKECTYPRPLPSDWICDKQCLCSAQNVIDYGTCVCCVKGLFYHCSNDDEDNCADNPCSCSQSHCCTRWSAMGVMSLFLPCLWCYLPAKGCLKLCQGCYDRVNRPGCRCKNSNTVCCKVPTVPPRNFEKPT
